Source: US20150337309
For part of these data: No signal at the amounts used counts as a negative. For part of these data: A weaker result is weaker than the reference pair of the same experiment. For part of these data: Protein sequences can lack the tags named with them. For part of these data: At least one result comes from cells or an extract, where the contact may be indirect. For part of these data: For at least one entry, the source does not settle the construct or the ends of the probe.

Chains of the proteins cited; added tags and fusions are not shown. Residues count along the entry.
UniProt Q15063, 22-836: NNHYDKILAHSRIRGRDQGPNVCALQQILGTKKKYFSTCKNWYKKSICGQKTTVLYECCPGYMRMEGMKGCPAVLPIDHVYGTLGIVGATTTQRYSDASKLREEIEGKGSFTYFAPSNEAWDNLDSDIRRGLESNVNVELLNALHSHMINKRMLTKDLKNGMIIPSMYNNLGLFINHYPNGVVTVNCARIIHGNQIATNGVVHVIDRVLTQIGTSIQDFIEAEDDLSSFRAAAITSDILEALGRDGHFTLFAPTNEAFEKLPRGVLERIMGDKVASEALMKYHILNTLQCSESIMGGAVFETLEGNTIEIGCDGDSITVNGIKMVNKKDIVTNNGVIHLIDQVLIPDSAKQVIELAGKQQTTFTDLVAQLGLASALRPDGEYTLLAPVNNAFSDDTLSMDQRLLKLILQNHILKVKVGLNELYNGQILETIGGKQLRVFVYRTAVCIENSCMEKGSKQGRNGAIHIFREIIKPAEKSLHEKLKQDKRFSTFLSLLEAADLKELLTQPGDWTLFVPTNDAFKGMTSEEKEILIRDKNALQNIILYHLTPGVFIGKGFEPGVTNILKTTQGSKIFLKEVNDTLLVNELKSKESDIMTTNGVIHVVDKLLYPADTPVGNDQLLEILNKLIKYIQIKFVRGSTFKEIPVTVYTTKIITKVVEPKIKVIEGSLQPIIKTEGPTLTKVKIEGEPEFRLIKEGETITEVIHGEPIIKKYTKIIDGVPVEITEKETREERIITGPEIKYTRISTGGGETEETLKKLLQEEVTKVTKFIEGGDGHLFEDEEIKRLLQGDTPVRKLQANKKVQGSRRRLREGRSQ
UniProt Q62009, 24-838: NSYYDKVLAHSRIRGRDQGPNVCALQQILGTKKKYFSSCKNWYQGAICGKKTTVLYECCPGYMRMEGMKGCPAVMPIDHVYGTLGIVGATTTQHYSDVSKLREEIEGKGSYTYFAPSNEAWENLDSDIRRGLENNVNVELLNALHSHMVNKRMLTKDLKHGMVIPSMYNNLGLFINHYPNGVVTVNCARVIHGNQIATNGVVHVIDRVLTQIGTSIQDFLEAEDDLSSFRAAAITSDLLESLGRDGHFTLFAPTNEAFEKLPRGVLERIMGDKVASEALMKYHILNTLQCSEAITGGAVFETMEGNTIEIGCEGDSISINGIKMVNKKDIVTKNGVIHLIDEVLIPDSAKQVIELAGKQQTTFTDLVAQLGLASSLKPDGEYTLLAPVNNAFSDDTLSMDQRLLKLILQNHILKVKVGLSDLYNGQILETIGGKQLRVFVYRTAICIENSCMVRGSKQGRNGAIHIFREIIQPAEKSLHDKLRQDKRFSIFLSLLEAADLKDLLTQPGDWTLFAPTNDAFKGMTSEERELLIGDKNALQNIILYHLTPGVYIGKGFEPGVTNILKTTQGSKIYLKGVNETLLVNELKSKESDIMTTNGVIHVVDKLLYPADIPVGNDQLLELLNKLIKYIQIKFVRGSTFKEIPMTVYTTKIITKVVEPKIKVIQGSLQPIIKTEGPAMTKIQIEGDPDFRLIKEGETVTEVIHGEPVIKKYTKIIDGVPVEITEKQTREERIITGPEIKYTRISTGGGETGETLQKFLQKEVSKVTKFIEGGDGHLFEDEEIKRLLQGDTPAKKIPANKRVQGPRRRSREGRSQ

What was measured:
periostin (Homo sapiens) [1] = target: periostin (Homo sapiens) (UniProt Q15063); assay: pull-down; conditions: purified recombinant protein, single-stranded DNA
periostin on 4T1 cells = periostin on 4T1 cells (UniProt Q62009); assay: flow cytometry; conditions: protein on the cell surface, protein details: endogenous, 4T1 breast cancer cells, single-stranded DNA
periostin (Homo sapiens) [2] = target: periostin (Homo sapiens) (UniProt Q15063); assay: competition with a labelled probe; conditions: BndU at all n [n positions 7,12,15,28,39 = modified dU]; does not compete with labelled PNDA-3; unlabelled PNDA-3 does; purified recombinant protein; single-stranded DNA
[3] = target: periostin full length (Homo sapiens) (UniProt Q15063); assay: pull-down; conditions: BndU at all n [BndU at 6,7,9,14,16,21,22,26,28,31,34,35,44]; biotin-PNDA-3, 4 C; protein in a lysate after overexpression; protein details: GFP fusion (anti-GFP detection), 293T lysate; label: 32P, biotin or Cy3 depending on assay; single-stranded DNA; letters built from the parent sequence and the stated change; variant of clone 8 full length
IgG (Homo sapiens) = assay: filter binding; conditions: BndU at all n [BndU at 6,7,9,14,16,21,22,26,28,31,34,35,44]; specificity control; purified native protein; protein details: Sigma; label: 32P, biotin or Cy3 depending on assay; single-stranded DNA; letters built from the parent sequence and the stated change; variant of clone 8 full length
[4] = target: T1, betaIG-H3 (TGFBI) (Homo sapiens) (UniProt Q15582); assay: filter binding; conditions: BndU at all n [BndU at 6,7,9,14,16,21,22,26,28,31,34,35,44]; binds at a low ratio; purified recombinant protein; protein details: R&D Systems; label: 32P, biotin or Cy3 depending on assay; single-stranded DNA; letters built from the parent sequence and the stated change; variant of clone 8 full length
T1 sequence (looked up, limits assumed): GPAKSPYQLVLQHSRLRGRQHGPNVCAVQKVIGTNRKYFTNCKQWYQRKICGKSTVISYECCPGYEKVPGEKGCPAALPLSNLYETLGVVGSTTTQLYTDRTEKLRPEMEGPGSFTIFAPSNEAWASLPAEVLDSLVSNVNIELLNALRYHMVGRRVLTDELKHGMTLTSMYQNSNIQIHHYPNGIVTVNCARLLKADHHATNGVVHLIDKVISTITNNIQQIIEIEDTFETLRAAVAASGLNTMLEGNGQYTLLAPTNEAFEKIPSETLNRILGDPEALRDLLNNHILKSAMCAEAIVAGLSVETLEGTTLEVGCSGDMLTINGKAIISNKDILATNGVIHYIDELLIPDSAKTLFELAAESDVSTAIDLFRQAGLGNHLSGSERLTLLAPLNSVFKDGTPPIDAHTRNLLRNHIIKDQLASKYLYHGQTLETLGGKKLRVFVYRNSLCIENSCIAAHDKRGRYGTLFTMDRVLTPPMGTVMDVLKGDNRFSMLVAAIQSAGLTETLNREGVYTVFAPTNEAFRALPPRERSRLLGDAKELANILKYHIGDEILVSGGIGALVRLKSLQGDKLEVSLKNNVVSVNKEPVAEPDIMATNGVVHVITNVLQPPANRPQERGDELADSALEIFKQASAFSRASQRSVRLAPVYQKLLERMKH

periostin (Mus musculus) = periostin (Mus musculus) (UniProt Q62009); assay: filter binding; conditions: BndU at all n [BndU at 6,7,9,14,16,21,22,26,28,31,34,35,44]; purified recombinant protein; label: 32P, biotin or Cy3 depending on assay; single-stranded DNA; letters built from the parent sequence and the stated change; variant of clone 8 full length

Row | Sequence | binding result (periostin (Homo sapiens) [1]; BndU at all n [n positions 7,12,15,28,39 = modified dU], control aptamer does not detect periostin in serum) | binding result (periostin on 4T1 cells; BndU at all n [n positions 7,12,15,28,39 = modified dU], control aptamer on 4T1 cells) | binding result (periostin (Homo sapiens) [2]) | binding result (periostin (Homo sapiens) [1]; BndU at all n [BndU at 6,7,9,14,16,21,22,26,28,31,34,35,44], biotin-PNDA-3, 10 nM periostin in 10% FBS, dose dependent, label: 32P, biotin or Cy3 depending on assay, letters built from the parent sequence and the stated change, variant of clone 8 full length) | binding result [3] | binding result (IgG (Homo sapiens)) | binding result [4] | binding result (periostin (Mus musculus)) | binding result (periostin on 4T1 cells; BndU at all n [BndU at 6,7,9,14,16,21,22,26,28,31,34,35,44], 100 nM Cy3-PNDA-3, 4 C, no binding above background to periostin-negative MCF7, label: 32P, biotin or Cy3 depending on assay, letters built from the parent sequence and the stated change, variant of clone 8 full length)
1 | ACGAGGTACGGTGCTGAAGGACCAGACTGAACCGCACATGCGACAAAACAA [control aptamer CTL] | no binding | no binding | no binding |  |  |  |  |  | 
2 | ACGAGTTGTCGCATGTGCGGTTCAGTCTGGTCCTTCAGCACCGTACAACAA [PNDA-3] |  |  |  | binds | binds | no binding | binds more weakly | binds | binds
